Experimental data reported in doi:10.1101/2022.09.23.509242.
These are yes or no findings as the source states them, for the method shown. Some entries that bind do so weakly or less than the wild type.

Sequences of proteins named here, by UniProt entry; tags and fusion partners are left off.
UniProt Q01860: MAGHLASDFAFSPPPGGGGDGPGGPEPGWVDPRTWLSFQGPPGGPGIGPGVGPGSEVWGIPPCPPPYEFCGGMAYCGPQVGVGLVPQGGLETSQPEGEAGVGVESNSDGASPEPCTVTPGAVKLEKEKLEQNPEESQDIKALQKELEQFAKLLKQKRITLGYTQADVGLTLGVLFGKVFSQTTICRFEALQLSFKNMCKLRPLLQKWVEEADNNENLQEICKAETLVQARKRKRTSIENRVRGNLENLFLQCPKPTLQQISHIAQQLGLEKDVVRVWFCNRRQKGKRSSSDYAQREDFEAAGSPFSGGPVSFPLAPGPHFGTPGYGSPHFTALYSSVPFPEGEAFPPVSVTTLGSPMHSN
UniProt P48431: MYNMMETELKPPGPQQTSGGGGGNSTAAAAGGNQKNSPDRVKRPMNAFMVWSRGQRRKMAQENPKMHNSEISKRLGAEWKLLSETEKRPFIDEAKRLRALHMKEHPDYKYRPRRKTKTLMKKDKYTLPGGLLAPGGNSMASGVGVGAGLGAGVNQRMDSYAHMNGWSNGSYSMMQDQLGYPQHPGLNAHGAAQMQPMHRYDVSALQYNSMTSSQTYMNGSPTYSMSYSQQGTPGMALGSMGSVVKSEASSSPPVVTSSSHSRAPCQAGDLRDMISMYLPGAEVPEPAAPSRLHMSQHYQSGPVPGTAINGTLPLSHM

Molecular target: endogenous Oct4 of human iPSCs (human (endogenous in hiPSCs)) (UniProt Q01860)
Assay: native gel or EMSA

- binding: binds weakly
Substance: endogenous Sox2 of human iPSCs (from UniProt P48431 1-317)
